Here are results for 1 compound from patent US20090085008A1, “Cellulose compound composition and cellulose compound film” (FUJIFILM Corporation, priority 2005, published 2009).

A short description of this data set: Re and Rth retardation values of stretched cellulose acetate film containing the additive. In kind it is physicochemical. To be noted: for Re / Rth: film 92 μm, orientation ratio 20% at 130° C., wavelength 633 nm.
The mark [1] stands for this setting: additive 2 mass parts per 100 mass parts cellulose acetate.
The mark [2] stands for this setting: additive 5 mass parts per 100 mass parts cellulose acetate.

Consider `COc1ccc(Nc2nc(Nc3cccc(C)c3)nc(Nc3cccc(C)c3)n2)cc1` [Compound 1 for comparison], for which, under setting [1], the Re/Rth turned out to be 0.17, the Re was 20 nm and the Rth is given as 115 nm. Under setting [2], the Re/Rth is reported as 0.21, the Re was found to be 38 nm and the Rth is on record as 180 nm.
